Measurements as given in PubChem BioAssay AID1471 (National Center for Advancing Translational Sciences (NCATS), 2008).
Several values for one entry are separate records, joined by “and”; a condition that tells them apart may be missing. Equal entries are not always repeated. In all, about 230,000 compounds went through this assay and about 310 (0.13%) were called active. About 2% were inconclusive and are not listed. Calls come from the whole dose curve; as a rule, active = well fitted activation curve with a large enough effect; inconclusive = small, poorly fitted or top-dose-only effect; inactive = no such curve, though single readings can be large or run the other way. The entries are a selection whose mix differs from that of the whole data set. The source gives no active or inactive call for entries shown without one. Where a structure was tested more than once in an assay, its records may differ in their call.

Test: qHTS Multiplex Assay to Identify Dual Action Probes in a Cell Model of Huntington: Cytoprotection (ATP); note: nearly all actives have a fitted effect of over 45% in size;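 for cytoprotection (ATP increase): toxic huntingtin expression switched on by the ecdysone agonist tebufenozide; % of control where 0% means no effect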
Details: PC12 HTT-Q103 induced, ATP luminescence, 40 h; cytoprotection (ATP increase): at 56.4 µM (top of the series) unless noted
Description: NIH Chemical Genomics Center [NCGC]
NIH Molecular Libraries Probe Production centers Network [MLPCN]
Assay Submitter (PI): Wei Zheng
Huntington's disease is a neurodegenerative disorder caused by a trinucleotide repeat expansion in Exon 1 of the Huntingtin gene. The CAG trinucleotide encodes glutamine and polyglutamine expansions cause cell death in selective areas of the brain. Huntington polyglutamine repeats have the tendency to form aggregates which are observable in later stages of the disease. The exact nature of the aggregates, whether toxic, protective, or insignificant, is unclear.
A stable PC12 cell line containing a gene fusion of Exon 1 of the Huntingtin gene linked to GFP under the control of the inducible ecdysone promoter were used as the cell-based model of Huntington Disease for high throughput screening. Exon 1 of the Huntingtin gene contained an expansion of 103 polyglutamines (Q103) which, when expressed, caused cell death and distinct, bright GFP aggregates. The amount of cell death and the size and intensity of GFP aggregates increased over time and induction level. The cell death were quantified with a measurement of ATP content in the cells. A maximal 40-50% of cell death was observed when the Huntington gene was induced in this cell line.
We optimized this assay in a homogeneous 1536 well format. A quantitative high throughput screen (qHTS) was conducted on the PC12 cells which were induced to express the toxic fusion construct. Small molecules which prevented cell death were identified by using a luminescent ATP quantification method (Perkin Elmer's ATPlite).
PC12 cells stably containing a construct with an ecdysone inducible promoter expressing GFP fused to the exon 1 of HTTQ103 (Huntington protein which containing a 103 ployglutamine expansion) were used.
NCGC Assay Protocol Summary:
Sequence, Parameter, Description
1, Reagent, 5 uL 1500 cells/well 1536 TC treated White clear bottom plate
2, Compound, 23 nL Tebufenozide inducer (100 nM final) to all columns
3, Compound, 23 nL 40 uM to 0.5 nM Libraries
5, Reagent, 5 ul ATPLite cell death assay reagent
6, Detector, 4 sec integration with a Viewlux Luminescent
Media consisted of phenol red free DMEM + 5% equine serum (Hyclone # SH30072.03 ), 5% supplemented Bovine Calf Serum (Hyclone # SH30074.03 ), 1x pen/strep, no G418
Control columns: 1 = DMSO, 2= 2 uM teb dilns (1:1), 4 = 100 nM Teb inducer. Sample columns received 100 nM Teb.
Potency is the fitted concentration of half-maximal effect.

| SMILES | cytoprotection (ATP increase) | Potency |
| --- | --- | --- |
| C[C@@H]1CC[C@H]2[C@@H](C)C(=O)O[C@@H]3OC4(C)CC[C@@H]1[C@]32OO4 | -147% |  |
| Oc1cccc2cccnc12 | -84.5% |  |
| CC(=O)O[C@@H]1C[C@@]2(C)C(c3ccoc3)C[C@H]3O[C@]32[C@]2(C)C(=O)C(O)=C3C(C)(C)C(=O)C=C[C@]3(C)C12 (some centres not stated) | -182% |  |
| CC(CCc1ccccc1)NC(C)C(O)c1ccc(O)cc1 (configuration not stated) | -13.7% |  |
| CC1(C)OC1COc1c2occc2cc2ccc(=O)oc12 (configuration not stated) | -46.5% |  |
| C[C@]12[C@H](O)CC3C(CC[C@@H]4C[C@@H](O)CC[C@]34C)[C@@]1(O)CC[C@@H]2C1=CC(=O)OC1 (some centres not stated) | 43.3% [at 1.9 µM] |  |
| CC(C)[C@H](NC(=O)[C@H](CCC(=O)O)NC(=O)[C@H](Cc1ccccc1)NC(=O)[C@H](C)NC(=O)[C@@H](N)Cc1ccc(O)cc1)C(=O)N[C@H](C(=O)NCC(N)=O)C(C)C | -31.4% |  |
| c1ccc2c(c1)OC[C@@H](C1=NCCN1)O2 |  | active: 5.01 µM |
| COc1ccc(-n2nc(C(F)(F)F)cc2-c2ccc(Cl)cc2)cc1 | -35.7% |  |
| COc1cc(CC(=O)OCC2=C[C@H]3[C@@H]4C(C)(C)[C@]4(OC(C)=O)[C@H](OC(=O)Cc4ccccc4)[C@@H](C)[C@]3(O)[C@@H]3C=C(C)C(=O)[C@@]3(O)C2)ccc1O | -79.9% |  |
| CC1=CC(=O)c2c(O)cccc2C1=O | -324% |  |
| CC(Cc1ccc(OCC(=O)O)cc1)NCC(O)c1cccc(Cl)c1 (configuration not stated) | 50.1% |  |
| CCCCCCC[n+]1ccc(-c2cc[n+](CCCCCCC)cc2)cc1 |  | active: 0.891 µM |
| CC(C)=CCCC1(C)C=Cc2c(O)c3c(c(CC=C(C)C)c2O1)OC12C(CC4CC1C(C)(C)OC2(C/C=C(/C)C(=O)O)C4O)C3=O (configuration not stated) |  | active: 3.16 µM |
| COc1ccc2c(c1)[nH]c1c(C)nccc12 | -42.6% |  |
| CCCCC[C@@H](/C=C/C=C\CCCCCCCCCC(=O)O)OO | -31.4% |  |
| Cc1[nH]c2ccc(Cl)cc2c1C1=CCNCC1 | -34.2% |  |
| CCCCCCCCCCCCC/C=C/[C@@H](O)[C@@H](N)COP(=O)([O-])OCC[N+](C)(C)C | -54.1% |  |

| SMILES | cytoprotection (ATP increase) | Potency |
| --- | --- | --- |
| CC(=O)Oc1ccc(Cl)c2cccnc12 | -92% |  |
| OCCN(CCO)CCO | 35.7% |  |
| CC(C)(O)/C=C\C(=O)[C@](C)(O)[C@H]1[C@H](O)C[C@]2(C)[C@@H]3CC=C4[C@@H](C=C(O)C(=O)C4(C)C)[C@]3(C)C(=O)C[C@@]12C |  | active: 5.01 µM |
| O=C(/C=C/c1ccc(Cl)cc1)N[C@@]12CCC(=O)[C@@H]3Oc4c(O)ccc5c4[C@@]31CCN(CC1CC1)C2C5 | -37.2% |  |
| O=C1/C(=C\c2ccccc2)C[C@@]2(O)[C@H]3Cc4ccc(O)c5c4[C@@]2(CCN3CC2CC2)[C@H]1O5 | -52.9% |  |
| C=C(C)C1CNC(C(=O)O)C1CC(=O)O (configuration not stated) | -35.3% |  |
| C=C(C)C1Cc2c(ccc3c(=O)c4c(oc23)COc2cc(OC)c(OC)cc2-4)O1 (configuration not stated) | 36.1% |  |
| CCOC(=O)/C=C(C)/C=C/CC(C)CCCC(C)C (configuration not stated) | 220% |  |
| O=C1C=C2C(=CCOC2O)O1 (configuration not stated) | -341% |  |
| CC1=C(O)C(=O)C=C2C1=CC=C1[C@]2(C)CC[C@@]2(C)C3C[C@](C)(C(=O)O)CC[C@@]3(C)CC[C@@]12C (some centres not stated) | -357% |  |
| CCC(C)C(=O)OC1C(O)C2C(CN3CC(C)CCC3[C@]2(C)O)C2C[C@]34O[C@@]5(O)C(OC(=O)C(C)(O)CC)CCC3(C)C5C(OC(C)=O)C(OC(C)=O)C4[C@@]21O (some centres not stated) |  | active: 1.41 µM |
| C[C@H](CCC(=O)O)C[C@H](C)C[C@H](C)C(=O)/C=C(\O)[C@H](C)C[C@H](C)C/C=C/[C@@H](C)[C@@H](O)[C@@H](C)[C@@H](O)C[C@@H]1CC[C@@](C)(C2CC[C@@](C)([C@@H](C)O)O2)O1 (some centres not stated) | -209% |  |
| CNc1ccc2oc(C[C@@H]3OC4(CC[C@@H]3C)O[C@H]([C@@H](C)C(=O)c3ccc[nH]3)[C@H](C)C[C@H]4C)nc2c1C(=O)O (some centres not stated) | -179% |  |
| CCOP(=O)(Cc1cc(C(=O)CC)c(C)o1)OCC | 404% [at 10 µM] |  |
| CCCCC/C=C\C/C=C\C/C=C\CCCCCCC(=O)NCCO | -43.5% |  |
| COc1ccc(CC2NCC(O)C2OC(C)=O)cc1 (configuration not stated) | -88.3% [at 1.9 µM] |  |
| CCCC(C)(COC(N)=O)COC(=O)NC(C)C (configuration not stated) | 31.2% |  |
| C=C1C([C@@H](O)C[C@H](C)C2O[C@@]3(CCCCO3)CC[C@H]2C)OC2CC[C@@]3(CC[C@@H](/C=C/[C@@H](C)C4CC(C)=C[C@]5(O4)O[C@H](C[C@@](C)(O)C(=O)O)CCC5O)O3)OC2[C@@H]1O (some centres not stated) | 65.3% |  |
| c1ccc2sc(C3(N4CCCCC4)CCCCC3)cc2c1 | -35.8% |  |

Full records as entered above.
CCCC(C)(COC(N)=O)COC(=O)NC(C)C (configuration not stated) as listed: cytoprotection (ATP increase): 31.2%
CCOC(=O)/C=C(C)/C=C/CC(C)CCCC(C)C (configuration not stated) as listed: cytoprotection (ATP increase): 220%

The listing continues:

| SMILES | cytoprotection (ATP increase) | Potency |
| --- | --- | --- |
| C=CC1CN2CCC1CC2C(O)c1ccnc2ccccc12 (configuration not stated) | -19.5% |  |
| COc1cccc2c1cc([N+](=O)[O-])c1c(C(=O)O)cc3c(c12)OCO3 | -17.8% |  |
| COC1=CC23CCCN2CCc2cc4c(cc2C3C1O)OCO4 (configuration not stated) | -30.5% |  |
| NC(Cc1ccc(N(CCCl)CCCl)cc1)C(=O)O (configuration not stated) | -114% |  |
| N#Cc1nn(-c2c(Cl)cc(C(F)(F)F)cc2Cl)c(N)c1S(=O)C(F)(F)F (configuration not stated) | -56.4% |  |
| CC1(C)C(=O)C=C[C@@]2(C)C1CC(O)[C@]1(C)C2CC[C@@]2(C)C(c3ccoc3)OC(=O)C3O[C@]312 (some centres not stated) |  | active: 0.794 µM |
| CCN1C[C@@]2(COC)C3[C@@H](OC)[C@H]4C1[C@@]3(C1C[C@]3(O)C(OC)[C@H](O)[C@@]4(OC(C)=O)C1[C@H]3OC(=O)c1ccccc1)[C@H](OC)C[C@H]2O (some centres not stated) | -7.28% |  |
| CC(=O)O[C@H]1[C@H]2[C@@H](OC(=O)Cc3ccccc3)[C@@H](C)C[C@]2(OC(C)=O)C(=O)/C(C)=C/[C@@H]2[C@H](CC[C@@]13CO3)C2(C)C | -47.8% |  |
| CNc1ccc2oc(C[C@@H]3OC4(CC[C@@H]3C)O[C@H](C(C)C(=O)c3ccc[nH]3)[C@H](C)C[C@H]4C)nc2c1C(=O)O (some centres not stated) | -345% |  |
| C=CCc1ccc(OC)cc1 | -37.9% |  |
| CCCCCCCCCCCCCCCC[N+](C)(C)C | -80.5% |  |
| CN(C)C(=O)Oc1ccc([N+](=O)[O-])cc1 | -41.1% |  |
| CC(C)c1cc2c(c(O)c1O)[C@@]1(C(=O)O)CCCC(C)(C)[C@@H]1CC2 | 61.7% |  |
| CC(C)c1cccc(C(C)C)c1O | -48.4% |  |
| NC1C[C@H]1c1ccccc1 (some centres not stated) | -43.1% |  |
| N#Cc1c(Cl)c(Cl)c(Cl)c(C#N)c1Cl | -336% |  |
| O=C1C=C2C=C[C@H]3C[C@@]2(O1)[C@H]1CCCCN31 |  | active: 12.6 µM and active: 6.31 µM |
| COc1ccccc1OCC#CCN1CCCCCC1 |  | active: 5.62 µM |
